{"source": "patent US11370769B2", "about": "“TRPC5 inhibitors and methods of using same” (BOARD OF REGENTS OF THE UNIVERSITY OF NEBRASKA, priority 2017, dated 2022)", "origin": "cited, not measured here", "key": {"[1]": {"biological_target": "T1, TRPC6 (Homo sapiens, UniProt Q9Y210)", "T1 sequence (Q9Y210 1-931)": "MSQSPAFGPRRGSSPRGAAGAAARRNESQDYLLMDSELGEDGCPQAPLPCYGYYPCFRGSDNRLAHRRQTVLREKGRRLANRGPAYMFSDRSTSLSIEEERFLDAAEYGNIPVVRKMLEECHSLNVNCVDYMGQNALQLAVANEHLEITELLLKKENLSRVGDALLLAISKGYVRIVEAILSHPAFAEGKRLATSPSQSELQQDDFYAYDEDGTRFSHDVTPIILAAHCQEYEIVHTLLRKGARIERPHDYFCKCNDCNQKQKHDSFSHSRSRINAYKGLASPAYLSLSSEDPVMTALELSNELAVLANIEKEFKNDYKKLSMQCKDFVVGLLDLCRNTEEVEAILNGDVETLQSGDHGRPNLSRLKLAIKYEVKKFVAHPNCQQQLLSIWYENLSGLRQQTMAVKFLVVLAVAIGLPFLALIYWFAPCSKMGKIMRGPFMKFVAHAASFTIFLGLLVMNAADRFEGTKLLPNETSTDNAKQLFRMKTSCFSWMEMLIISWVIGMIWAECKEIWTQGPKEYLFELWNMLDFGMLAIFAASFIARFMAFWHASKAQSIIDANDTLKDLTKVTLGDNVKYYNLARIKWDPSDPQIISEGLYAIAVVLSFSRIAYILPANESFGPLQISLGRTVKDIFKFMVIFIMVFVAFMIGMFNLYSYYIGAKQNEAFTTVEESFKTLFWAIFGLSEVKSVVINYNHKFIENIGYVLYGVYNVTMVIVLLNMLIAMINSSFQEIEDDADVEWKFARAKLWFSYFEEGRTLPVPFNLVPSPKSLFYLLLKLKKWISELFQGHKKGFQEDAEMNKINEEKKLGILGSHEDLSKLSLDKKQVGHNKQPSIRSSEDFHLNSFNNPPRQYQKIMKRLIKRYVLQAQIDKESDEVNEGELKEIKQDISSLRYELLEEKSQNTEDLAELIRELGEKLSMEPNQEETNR", "conditions": "cited from earlier work"}, "[2]": {"biological_target": "T2, TRPC4 (Homo sapiens, UniProt Q9UBN4)", "T2 sequence (Q9UBN4 1-977)": "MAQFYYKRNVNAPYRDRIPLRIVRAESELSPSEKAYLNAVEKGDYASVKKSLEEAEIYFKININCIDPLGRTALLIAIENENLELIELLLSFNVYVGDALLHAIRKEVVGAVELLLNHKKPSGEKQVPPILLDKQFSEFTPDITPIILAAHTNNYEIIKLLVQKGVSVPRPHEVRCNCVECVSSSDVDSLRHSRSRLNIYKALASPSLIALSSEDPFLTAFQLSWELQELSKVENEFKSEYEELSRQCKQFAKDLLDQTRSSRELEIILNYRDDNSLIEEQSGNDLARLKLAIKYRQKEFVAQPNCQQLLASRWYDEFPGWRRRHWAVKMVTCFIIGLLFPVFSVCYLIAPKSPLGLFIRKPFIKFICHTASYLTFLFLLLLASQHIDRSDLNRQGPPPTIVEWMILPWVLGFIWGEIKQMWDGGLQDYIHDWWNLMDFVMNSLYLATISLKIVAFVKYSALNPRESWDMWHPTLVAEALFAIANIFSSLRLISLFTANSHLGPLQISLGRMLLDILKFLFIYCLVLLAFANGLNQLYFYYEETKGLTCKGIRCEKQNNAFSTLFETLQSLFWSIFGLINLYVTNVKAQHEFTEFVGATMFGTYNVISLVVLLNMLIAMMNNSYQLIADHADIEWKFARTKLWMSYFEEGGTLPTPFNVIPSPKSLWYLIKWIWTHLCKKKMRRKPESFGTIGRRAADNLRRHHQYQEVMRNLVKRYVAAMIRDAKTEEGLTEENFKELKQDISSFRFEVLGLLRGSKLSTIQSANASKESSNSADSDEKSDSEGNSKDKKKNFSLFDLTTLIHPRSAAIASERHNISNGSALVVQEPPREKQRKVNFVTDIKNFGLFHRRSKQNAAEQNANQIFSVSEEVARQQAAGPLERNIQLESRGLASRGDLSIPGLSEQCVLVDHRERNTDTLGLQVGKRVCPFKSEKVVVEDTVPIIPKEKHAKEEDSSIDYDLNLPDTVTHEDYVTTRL", "conditions": "cited from earlier work"}}, "note": "At least one structure is not confirmed: it was looked up by name or label, or the drawing left a doubt.", "data": [{"compound": "Cc1cc(N2CCCCC2)nc2ccccc12", "note": "[ML204, reference compound]", "values": [{"measurement": "weak block of TRPC6 channels, ratio to TRPC5", "setting": "[1]", "result": "1:20"}, {"measurement": "block of TRPC4 channels, ratio to TRPC5", "setting": "[2]", "result": "1:1"}]}]}
